{"source": "PubChem BioAssay (NCATS)", "experiment": "qHTS for identification of novel therapeutic agents for treatment of microphthalmiaassociated transcription factor (MiT) renal cell carcinoma (RCC) (AID 1963991)", "conditions": "CellTiter-Glo, 48 h; for z-score: stronger effect = lower value", "summary_of_the_method": "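UOK109/UOK124/UOK145 (TFE3 fusions, three partners); 500 cells/well; MIPE v4.0, 1912 cpds, 11 conc.; 48 h, 37 C; CellTiter-Glo, 15 min RT; lum. Norm.: DMSO 100%, empty 0%.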", "key": {"[1]": {"conditions": "TFE3-RCC UOK109 viability, measured here: UOK109 Z-AUC"}, "[2]": {"conditions": "TFE3-RCC viability, measured here: UOK124 Z-AUC"}, "[3]": {"conditions": "TFE3-RCC viability, measured here: UOK124 cell viability"}, "[4]": {"conditions": "TFE3-RCC viability, measured here: UOK145 Z-AUC"}, "[5]": {"conditions": "TFE3-RCC viability, measured here: UOK145 cell viability"}}, "note": "The list shows a part of the results. These are further read-outs of the screen, such as a control signal, another cell line or another target. No call is given for them. Compounds called inactive in the main read-out are mostly missing here. Potencies come from curve fits of mixed quality, noted in brackets."}
{"smiles": "CO[C@@H]1[C@@H](O)[C@H](O)[C@@H](n2c3c(Cl)cccc3c3c4c(c5c6cccc(Cl)c6[nH]c5c32)C(=O)NC4=O)O[C@@H]1CO", "values": [{"measurement": "z-score", "setting": "[1]", "result": -0.294}, {"measurement": "z-score", "setting": "[2]", "result": 0.0799}, {"measurement": "AC50", "setting": "[3]", "result": "0.662 µM [falling, full curve]"}, {"measurement": "z-score", "setting": "[4]", "result": -0.442}, {"measurement": "AC50", "setting": "[5]", "result": "1.05 µM [falling, full curve]"}]}
{"smiles": "CNC(=O)c1ccc(N2C(=S)N(c3cnc(C#N)c(C(F)(F)F)c3)C(=O)C23CCC3)cc1F", "values": [{"measurement": "z-score", "setting": "[1]", "result": -0.513}, {"measurement": "z-score", "setting": "[2]", "result": -0.209}, {"measurement": "AC50", "setting": "[3]", "result": "26.4 µM [falling, partial curve, poor fit]"}, {"measurement": "z-score", "setting": "[4]", "result": -1.24}, {"measurement": "AC50", "setting": "[5]", "result": "1.66 µM [falling, full curve]"}]}
{"smiles": "CN(C)CC(C)(C)CNc1nn2c(-c3ccccc3)nnc2cc1C1CCC1", "values": [{"measurement": "z-score", "setting": "[1]", "result": -0.908}, {"measurement": "z-score", "setting": "[2]", "result": -1.2}, {"measurement": "AC50", "setting": "[3]", "result": "1.18 µM [falling, full curve]"}, {"measurement": "z-score", "setting": "[4]", "result": -0.156}, {"measurement": "AC50", "setting": "[5]", "result": "1.66 µM [falling, full curve]"}]}
{"smiles": "Cc1c(NC(=O)c2ccc(C(C)(C)C)cc2)cccc1-c1cn(C)c(=O)c(Nc2ccc(C(=O)N3CCOCC3)cc2)n1", "values": [{"measurement": "z-score", "setting": "[1]", "result": -0.041}, {"measurement": "z-score", "setting": "[2]", "result": 0.647}, {"measurement": "AC50", "setting": "[3]", "result": "26.4 µM [falling, single point]"}, {"measurement": "z-score", "setting": "[4]", "result": 0.761}, {"measurement": "AC50", "setting": "[5]", "result": "20.9 µM [falling, partial curve, poor fit]"}]}
{"smiles": "C[C@H](NC(=O)Cc1cc(F)cc(F)c1)C(=O)N[C@@H]1C(=O)N(C)c2ccccc2-c2ccccc21", "values": [{"measurement": "z-score", "setting": "[1]", "result": -0.402}, {"measurement": "z-score", "setting": "[2]", "result": -0.262}, {"measurement": "AC50", "setting": "[3]", "result": "37.2 µM [falling, single point]"}, {"measurement": "z-score", "setting": "[4]", "result": -0.443}, {"measurement": "AC50", "setting": "[5]", "result": "14.8 µM [falling, partial curve]"}]}
{"smiles": "Nc1nc(Cl)nc2c1ncn2[C@@H]1O[C@H](CO)[C@@H](O)[C@H]1F", "values": [{"measurement": "z-score", "setting": "[1]", "result": -0.708}, {"measurement": "z-score", "setting": "[2]", "result": 0.914}, {"measurement": "AC50", "setting": "[3]", "result": "0.0743 µM [falling, full curve]"}, {"measurement": "z-score", "setting": "[4]", "result": -2.92}, {"measurement": "AC50", "setting": "[5]", "result": "0.0209 µM [falling, partial curve, poor fit]"}]}
